# Data published in the supplement of paper PMC12819154, “High-throughput peptide-centric local stability assay extends protein–ligand identification to membrane proteins, tissues and bacteria” (Nature Structural & Molecular Biology, 2025).
# By UniProt entry, the sequences of proteins in these tests, tags left out. Where a name states a change or a piece, a line headed by the entry shows the natural chain unless it says otherwise.
# UniProt P47802: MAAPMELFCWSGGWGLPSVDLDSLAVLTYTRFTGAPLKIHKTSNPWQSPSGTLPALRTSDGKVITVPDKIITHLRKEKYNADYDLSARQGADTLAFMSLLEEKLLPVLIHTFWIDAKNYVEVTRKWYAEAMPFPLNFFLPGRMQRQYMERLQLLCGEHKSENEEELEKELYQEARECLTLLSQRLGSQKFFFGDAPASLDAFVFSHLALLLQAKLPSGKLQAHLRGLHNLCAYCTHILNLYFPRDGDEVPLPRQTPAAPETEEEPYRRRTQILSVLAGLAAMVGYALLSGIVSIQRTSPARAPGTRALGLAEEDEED
# UniProt P29595, whole entry: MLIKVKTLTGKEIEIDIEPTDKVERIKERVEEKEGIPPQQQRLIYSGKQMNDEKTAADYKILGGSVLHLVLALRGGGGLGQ
# UniProt P47968: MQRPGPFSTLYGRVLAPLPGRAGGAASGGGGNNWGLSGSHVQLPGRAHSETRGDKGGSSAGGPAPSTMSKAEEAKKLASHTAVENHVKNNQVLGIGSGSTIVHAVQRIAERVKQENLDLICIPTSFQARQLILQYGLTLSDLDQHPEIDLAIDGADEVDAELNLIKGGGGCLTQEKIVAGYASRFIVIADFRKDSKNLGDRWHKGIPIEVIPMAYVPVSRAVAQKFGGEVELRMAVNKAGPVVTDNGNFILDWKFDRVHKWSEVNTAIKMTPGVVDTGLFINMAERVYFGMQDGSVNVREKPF
# UniProt P28574, whole entry: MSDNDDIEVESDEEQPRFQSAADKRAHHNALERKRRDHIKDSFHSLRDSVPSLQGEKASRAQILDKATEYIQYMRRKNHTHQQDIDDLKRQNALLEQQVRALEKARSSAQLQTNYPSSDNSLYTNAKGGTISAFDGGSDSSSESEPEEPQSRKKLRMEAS
# UniProt P50136: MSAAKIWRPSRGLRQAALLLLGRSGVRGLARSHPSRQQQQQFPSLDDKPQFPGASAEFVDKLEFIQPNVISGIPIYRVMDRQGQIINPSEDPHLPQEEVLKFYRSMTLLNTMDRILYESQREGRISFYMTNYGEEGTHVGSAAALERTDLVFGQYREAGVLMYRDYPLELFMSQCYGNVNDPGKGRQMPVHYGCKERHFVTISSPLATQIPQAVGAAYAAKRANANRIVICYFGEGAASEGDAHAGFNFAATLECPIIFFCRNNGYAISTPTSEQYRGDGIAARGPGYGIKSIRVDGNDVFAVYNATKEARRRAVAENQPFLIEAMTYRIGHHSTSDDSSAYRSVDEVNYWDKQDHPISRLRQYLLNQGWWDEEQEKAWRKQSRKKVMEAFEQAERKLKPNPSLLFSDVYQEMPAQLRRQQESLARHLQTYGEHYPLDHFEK
# UniProt P47877: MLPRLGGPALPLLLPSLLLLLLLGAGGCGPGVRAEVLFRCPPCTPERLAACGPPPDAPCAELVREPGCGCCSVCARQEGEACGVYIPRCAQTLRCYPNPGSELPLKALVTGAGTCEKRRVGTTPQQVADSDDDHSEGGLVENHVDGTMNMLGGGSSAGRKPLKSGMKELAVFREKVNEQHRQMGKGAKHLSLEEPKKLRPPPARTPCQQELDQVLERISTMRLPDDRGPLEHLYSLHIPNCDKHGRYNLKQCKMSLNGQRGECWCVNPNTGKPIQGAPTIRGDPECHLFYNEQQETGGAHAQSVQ
# UniProt P43025: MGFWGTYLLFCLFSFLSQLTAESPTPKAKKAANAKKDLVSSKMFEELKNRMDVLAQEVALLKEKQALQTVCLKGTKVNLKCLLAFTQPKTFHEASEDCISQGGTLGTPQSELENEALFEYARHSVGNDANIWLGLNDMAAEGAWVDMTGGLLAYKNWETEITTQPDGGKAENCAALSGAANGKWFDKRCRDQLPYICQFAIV
# UniProt P55284: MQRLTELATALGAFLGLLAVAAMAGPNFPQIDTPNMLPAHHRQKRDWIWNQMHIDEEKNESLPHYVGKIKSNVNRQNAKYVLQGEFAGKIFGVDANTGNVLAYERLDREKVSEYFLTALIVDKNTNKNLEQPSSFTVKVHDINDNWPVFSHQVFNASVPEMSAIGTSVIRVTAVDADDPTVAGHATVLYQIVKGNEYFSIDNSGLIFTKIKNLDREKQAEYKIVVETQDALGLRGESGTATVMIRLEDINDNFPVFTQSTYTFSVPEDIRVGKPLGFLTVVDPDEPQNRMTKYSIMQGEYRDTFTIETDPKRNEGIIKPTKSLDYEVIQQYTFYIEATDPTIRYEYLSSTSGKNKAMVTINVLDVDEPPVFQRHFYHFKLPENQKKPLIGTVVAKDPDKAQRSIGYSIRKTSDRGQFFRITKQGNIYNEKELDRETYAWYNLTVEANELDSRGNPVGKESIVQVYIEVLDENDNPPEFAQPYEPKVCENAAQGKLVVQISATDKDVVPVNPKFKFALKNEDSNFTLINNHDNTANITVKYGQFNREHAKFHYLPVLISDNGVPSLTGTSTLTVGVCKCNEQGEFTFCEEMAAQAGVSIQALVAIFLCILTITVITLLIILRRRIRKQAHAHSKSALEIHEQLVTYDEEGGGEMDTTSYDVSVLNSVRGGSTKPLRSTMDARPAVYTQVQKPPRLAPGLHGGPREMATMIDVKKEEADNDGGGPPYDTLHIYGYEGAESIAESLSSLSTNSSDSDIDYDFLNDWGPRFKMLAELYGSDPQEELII
# UniProt P49710: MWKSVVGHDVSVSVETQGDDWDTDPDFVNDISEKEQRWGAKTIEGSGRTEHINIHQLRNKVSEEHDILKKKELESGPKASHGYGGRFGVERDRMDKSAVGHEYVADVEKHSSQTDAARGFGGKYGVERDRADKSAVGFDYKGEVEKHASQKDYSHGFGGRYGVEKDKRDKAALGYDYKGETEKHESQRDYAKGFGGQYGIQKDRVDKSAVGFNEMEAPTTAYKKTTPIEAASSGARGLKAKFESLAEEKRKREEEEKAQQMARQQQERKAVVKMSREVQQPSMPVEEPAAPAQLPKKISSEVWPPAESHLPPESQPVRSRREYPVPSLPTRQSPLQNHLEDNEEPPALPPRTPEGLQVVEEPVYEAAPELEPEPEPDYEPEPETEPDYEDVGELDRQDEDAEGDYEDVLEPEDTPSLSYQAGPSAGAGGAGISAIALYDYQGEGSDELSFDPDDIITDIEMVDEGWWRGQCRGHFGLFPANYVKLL
# UniProt P35700: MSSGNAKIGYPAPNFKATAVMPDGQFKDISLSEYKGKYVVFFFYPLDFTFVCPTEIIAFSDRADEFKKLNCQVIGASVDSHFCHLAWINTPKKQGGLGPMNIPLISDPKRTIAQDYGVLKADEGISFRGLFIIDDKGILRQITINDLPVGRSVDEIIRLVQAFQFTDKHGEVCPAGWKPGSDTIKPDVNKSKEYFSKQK
# UniProt P49935: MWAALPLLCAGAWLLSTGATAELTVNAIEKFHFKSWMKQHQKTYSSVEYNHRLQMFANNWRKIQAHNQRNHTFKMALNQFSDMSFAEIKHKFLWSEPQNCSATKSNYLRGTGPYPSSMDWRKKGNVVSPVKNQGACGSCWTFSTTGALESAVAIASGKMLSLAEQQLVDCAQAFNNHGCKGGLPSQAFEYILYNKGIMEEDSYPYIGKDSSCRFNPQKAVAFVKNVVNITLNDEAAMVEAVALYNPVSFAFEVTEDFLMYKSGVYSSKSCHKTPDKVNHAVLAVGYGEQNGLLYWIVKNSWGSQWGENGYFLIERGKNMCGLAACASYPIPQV
# UniProt P30416: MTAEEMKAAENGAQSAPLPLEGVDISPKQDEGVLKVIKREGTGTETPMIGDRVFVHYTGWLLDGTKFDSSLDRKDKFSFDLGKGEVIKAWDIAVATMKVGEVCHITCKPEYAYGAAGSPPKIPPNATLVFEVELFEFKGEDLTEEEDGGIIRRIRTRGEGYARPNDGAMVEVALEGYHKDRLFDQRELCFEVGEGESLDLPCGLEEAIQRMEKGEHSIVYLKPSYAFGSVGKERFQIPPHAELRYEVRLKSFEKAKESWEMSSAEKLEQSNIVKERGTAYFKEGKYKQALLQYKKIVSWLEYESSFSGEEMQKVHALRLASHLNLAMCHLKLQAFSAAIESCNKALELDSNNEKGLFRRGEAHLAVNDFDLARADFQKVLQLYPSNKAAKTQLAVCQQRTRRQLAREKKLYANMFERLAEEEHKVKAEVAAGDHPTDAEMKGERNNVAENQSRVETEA
# UniProt P54761: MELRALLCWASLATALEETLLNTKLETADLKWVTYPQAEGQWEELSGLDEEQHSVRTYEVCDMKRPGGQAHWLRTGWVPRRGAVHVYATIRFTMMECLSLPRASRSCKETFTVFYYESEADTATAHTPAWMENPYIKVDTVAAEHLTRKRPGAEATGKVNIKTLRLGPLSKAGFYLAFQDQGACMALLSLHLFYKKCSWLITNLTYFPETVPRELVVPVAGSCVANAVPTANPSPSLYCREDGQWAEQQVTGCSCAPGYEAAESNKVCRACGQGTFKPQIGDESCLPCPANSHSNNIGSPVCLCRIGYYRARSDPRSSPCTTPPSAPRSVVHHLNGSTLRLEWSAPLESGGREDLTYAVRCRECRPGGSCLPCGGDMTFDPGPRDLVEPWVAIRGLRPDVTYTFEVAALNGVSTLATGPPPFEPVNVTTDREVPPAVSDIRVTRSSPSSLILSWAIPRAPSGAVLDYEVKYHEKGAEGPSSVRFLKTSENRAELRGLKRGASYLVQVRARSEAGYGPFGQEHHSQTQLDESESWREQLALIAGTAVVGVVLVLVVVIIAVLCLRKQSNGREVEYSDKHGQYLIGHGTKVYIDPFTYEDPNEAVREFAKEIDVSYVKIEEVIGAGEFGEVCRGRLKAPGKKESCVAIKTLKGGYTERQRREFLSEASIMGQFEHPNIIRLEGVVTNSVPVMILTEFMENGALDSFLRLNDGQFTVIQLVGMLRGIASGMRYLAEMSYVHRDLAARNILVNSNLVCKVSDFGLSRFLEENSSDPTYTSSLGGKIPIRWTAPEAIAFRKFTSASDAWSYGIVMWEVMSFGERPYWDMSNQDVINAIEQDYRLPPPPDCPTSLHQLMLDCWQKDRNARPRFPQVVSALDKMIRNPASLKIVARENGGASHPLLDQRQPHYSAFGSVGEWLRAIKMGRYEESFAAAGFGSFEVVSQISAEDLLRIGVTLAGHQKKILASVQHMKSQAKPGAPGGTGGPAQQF
# UniProt P56387: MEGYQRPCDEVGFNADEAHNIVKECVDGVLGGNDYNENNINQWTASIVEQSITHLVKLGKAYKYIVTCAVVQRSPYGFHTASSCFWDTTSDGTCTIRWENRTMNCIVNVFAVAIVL
# UniProt P30204: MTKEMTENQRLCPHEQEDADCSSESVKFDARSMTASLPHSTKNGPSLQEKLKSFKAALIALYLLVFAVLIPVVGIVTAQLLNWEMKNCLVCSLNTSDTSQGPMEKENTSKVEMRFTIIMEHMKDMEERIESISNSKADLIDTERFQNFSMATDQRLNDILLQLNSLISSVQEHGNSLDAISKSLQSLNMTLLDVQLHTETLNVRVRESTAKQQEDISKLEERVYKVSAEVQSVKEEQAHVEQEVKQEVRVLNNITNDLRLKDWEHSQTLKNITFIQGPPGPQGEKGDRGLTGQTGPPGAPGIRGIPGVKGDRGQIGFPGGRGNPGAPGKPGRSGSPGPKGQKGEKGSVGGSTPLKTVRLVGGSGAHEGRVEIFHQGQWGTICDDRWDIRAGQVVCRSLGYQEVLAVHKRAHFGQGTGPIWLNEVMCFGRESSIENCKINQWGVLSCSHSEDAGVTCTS
# UniProt P32883, whole entry: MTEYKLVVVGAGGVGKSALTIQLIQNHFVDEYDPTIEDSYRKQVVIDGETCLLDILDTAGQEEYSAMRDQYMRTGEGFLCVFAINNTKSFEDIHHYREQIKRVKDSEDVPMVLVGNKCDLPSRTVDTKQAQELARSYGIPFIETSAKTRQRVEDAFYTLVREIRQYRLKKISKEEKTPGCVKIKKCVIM
# UniProt P48437: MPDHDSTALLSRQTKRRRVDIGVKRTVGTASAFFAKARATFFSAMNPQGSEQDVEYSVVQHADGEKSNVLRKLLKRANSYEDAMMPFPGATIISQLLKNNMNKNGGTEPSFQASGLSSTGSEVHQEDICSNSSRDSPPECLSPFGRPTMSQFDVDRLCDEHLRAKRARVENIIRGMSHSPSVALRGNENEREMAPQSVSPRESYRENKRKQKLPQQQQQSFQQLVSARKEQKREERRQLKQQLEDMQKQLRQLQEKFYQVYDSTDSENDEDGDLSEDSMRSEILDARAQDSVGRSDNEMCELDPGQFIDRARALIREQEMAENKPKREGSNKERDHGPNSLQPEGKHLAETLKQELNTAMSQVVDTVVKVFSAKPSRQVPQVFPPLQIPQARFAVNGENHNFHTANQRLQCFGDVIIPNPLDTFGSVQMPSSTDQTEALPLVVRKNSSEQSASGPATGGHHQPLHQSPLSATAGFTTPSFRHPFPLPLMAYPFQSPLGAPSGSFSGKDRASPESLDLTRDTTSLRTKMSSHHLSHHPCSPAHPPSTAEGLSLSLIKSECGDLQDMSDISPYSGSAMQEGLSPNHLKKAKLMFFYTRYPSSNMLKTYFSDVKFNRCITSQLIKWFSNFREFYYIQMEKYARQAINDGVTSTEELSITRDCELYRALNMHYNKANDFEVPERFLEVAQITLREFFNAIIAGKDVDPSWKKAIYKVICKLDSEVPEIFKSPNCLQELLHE
# The list shows a part of the results. Small differences around the control level are noise.
# Compound: CN[C@@H]1C[C@H]2O[C@@](C)([C@@H]1OC)n1c3ccccc3c3c4c(c5c6ccccc6n2c5c31)C(=O)NC4 [staurosporine]
# Assay: log2 fold change of pooled soluble protein (PISA), ligand vs vehicle (log2 ratio); higher = more thermally stabilized
# Conditions: ligand concentration: 20 uM; assay format: PISA pool 52.9/55.5/58.6 C
row,Target,log2 fold change of pooled soluble protein
1,P48024;Q9CXU9,0.051
2,UniProt P47753,-0.0811
3,UniProt P35235,0.0926
4,UniProt P47802,0.191
5,UniProt P29595,0.0377
6,UniProt P34927,-0.0739
7,UniProt P47968,-0.0355
8,UniProt P47754,-0.0162
9,UniProt P28574,-0.0321
10,UniProt P49429,0.0717
11,UniProt P50136,-0.0901
12,UniProt P47199,-0.0667
13,UniProt P52196,-0.0504
14,UniProt P55937,-0.014
15,UniProt P53566,0.112
16,UniProt P49443,-0.0917
17,UniProt P43406,-0.0499
18,UniProt P47877,0.0373
19,UniProt P46935,-0.0817

# 2 entries drawn at random from the list so far:
row,Target,log2 fold change of pooled soluble protein
3,UniProt P35235,0.0926
18,UniProt P47877,0.0373

# Next records follow.

row,Target,log2 fold change of pooled soluble protein
1,UniProt P29387,0.0652
2,UniProt P43025,-0.0291
3,UniProt P55284,-0.0324
4,UniProt P49710,-0.0772
5,UniProt P54103,0.179
6,UniProt P53798,-0.0385
7,UniProt P35700,-0.081
8,UniProt P49935,0.0707
9,UniProt P33587,-0.0163
10,UniProt P28666,-0.0915
11,UniProt P30416,-0.00268
12,UniProt P42232,-0.244
13,UniProt P52332,-0.363
14,UniProt P54761,0.163
15,UniProt P56387,-0.0216
16,UniProt P30204,0.417
17,UniProt P32883,0.103
18,UniProt P48437,-0.111
